Measurements reported in PubChem BioAssay AID504804 (Drosophila RNAi Screening Center, 2011)

Assay: 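Fly genes whose loss lessens doxorubicin-driven cell death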 (primary screen)
Cells: Drosophila Kc cells
Knock-down reagent: long dsRNA against Drosophila genes, 0.5 µg dsRNA per well
Time to read-out: 96 h (48 h knock-down, then 48 h drug)
Treatment: doxorubicin 5 µg/ml for 48 h, added 48 h after dsRNA
Measurement: 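Luminescent ATP counts per replicate, not normalised, reflecting viable cells after 48 h dsRNA knock-down followed by 48 h of 5 µg/ml doxorubicin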
Reading the numbers: raw ATP luminescence: higher = more viable cells, protection from doxorubicin
Call rule: 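z-score of 2 or more over plate mean in both duplicates, retained only when retests and separate dsRNAs confirm the protection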
The deposit covers about 19,000 reagents; shown is a random part of those that have a named target and a result. Over the whole deposit, 47 (0.25%) got an active call. 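Signals are raw, not normalised; exact z-scores behind calls not deposited; actives needed confirmation, so some wells reaching 2 SD are inactive.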 The numbers tell different reagents against one gene apart. A plus sign joins genes that one reagent is predicted to hit.

Gene | reagent | SD above plate mean | raw ATP luminescence, replicate 1 | raw ATP luminescence, replicate 2 | activity call
CG31373 | 1 | – | 51960 | 56177 | inactive
CG11370 | 1 | – | 52790 | 47543 | inactive
fu | 1 | – | 1.45e5 | 1.48e5 | inactive
CG16824 | 1 | – | 47460 | 62983 | inactive
Rh3 | 1 | – | 46230 | 51160 | inactive
CG7987 | 1 | – | 93667 | 37137 | inactive
Sumo | 1 | – | 56757 | 50753 | inactive
Ubc84D | 1 | – | 65210 | 69783 | inactive
cpb | 1 | – | 87893 | 65447 | inactive
Cad88C | 1 | – | 73040 | 61030 | inactive
CG32572 | 1 | – | 3.23e5 | 3.18e5 | inactive
CG32572 | 2 | – | 3.46e5 | 3.16e5 | inactive
CG43861 + CG12508 (retired record) | 1 | – | 67133 | 55003 | inactive
CG34165 | 1 | – | 28203 | 24110 | inactive
CG12912 | 1 | – | 10743 | 12323 | inactive
Gp150 | 1 | – | 26417 | 34257 | inactive
ac | 1 | – | 21080 | 27030 | inactive
Neb-cGP | 1 | – | 3.11e5 | 3.08e5 | inactive
betaggt-I | 1 | – | 23517 | 21957 | inactive
CG12479 | 1 | – | 3.05e5 | 3.18e5 | inactive
CG3652 | 1 | – | 28780 | 27663 | inactive
Vha68-2 | 1 | – | 59117 | 68707 | inactive
Cyp313b1 | 1 | – | 63547 | 61620 | inactive
CG2006 + Spase12 | 1 | – | 35610 | 40890 | inactive
Cpr72Ea | 1 | – | 18017 | 25907 | inactive
CG17140 + CG17139 | 1 | – | 37447 | 46547 | inactive
CG17140 + CG17139 | 2 | – | 45533 | 62783 | inactive
CG7744 | 1 | – | 71353 | 81413 | inactive
mthl13 | 1 | – | 84470 | 1.01e5 | inactive
CG8531 | 1 | – | 72113 | 62867 | inactive
CG42245 + MEP-1 | 1 | – | 1.39e5 | 1.61e5 | inactive
CG42245 + MEP-1 | 2 | – | 71833 | 77670 | inactive
gukh | 1 | – | 48360 | 44410 | inactive
gukh | 2 | – | 35220 | 47760 | inactive
gukh | 3 | – | 38993 | 37347 | inactive
CG1850 | 1 | – | 48630 | 73243 | inactive
Cow | 1 | – | 1.48e5 | 1.57e5 | inactive
Cow | 2 | – | 70490 | 58860 | inactive
CG14280 | 1 | – | 61240 | 79170 | inactive
Ddc | 1 | – | 64793 | 68877 | inactive
CG18178 | 1 | – | 49937 | 40763 | inactive
mRpS26 | 1 | at least 2 SD above plate mean | 1.04e5 | 83867 | inactive
Prosbeta6 | 1 | – | 27377 | 23003 | inactive
CG15237 | 1 | – | 44847 | 96537 | inactive
spas | 1 | – | 43650 | 75290 | inactive
NimA | 1 | – | 2.01e5 | 1.54e5 | inactive
CG13627 | 1 | – | 47110 | 45930 | inactive
CG15011 | 1 | – | 32423 | 37113 | inactive
raskol | 1 | – | 1.39e5 | 1.31e5 | inactive
raskol | 2 | – | 3.36e5 | 2.99e5 | inactive
raskol | 3 | – | 3.34e5 | 3.38e5 | inactive
raskol | 4 | – | 67000 | 61360 | inactive
Qsox4 | 1 | – | 42343 | 42677 | inactive
Tat | 1 | – | 3.37e5 | 3.07e5 | inactive
CG17270 | 1 | – | 43663 | 45130 | inactive
CG17470 | 1 | – | 87937 | 63503 | inactive
CG10283 | 1 | – | 81003 | 71903 | inactive
CG10337 | 1 | – | 52740 | 71957 | inactive
Or85b | 1 | – | 60650 | 60393 | inactive
CG42262 (retired record) | 1 | – | 1.63e5 | 1.51e5 | inactive
CG42262 (retired record) | 2 | – | 3.94e5 | 4.03e5 | inactive
d-cup | 1 | – | 47037 | 45773 | inactive
CG3651 | 1 | – | 64637 | 67093 | inactive
Arv1 | 1 | – | 62560 | 65850 | inactive
Nurf-38 | 1 | – | 49917 | 43297 | inactive
G9a | 1 | – | 61390 | 44620 | inactive
CG9630 | 1 | – | 60630 | 28913 | inactive

Next part; the last 12 above are carried over.
Gene | reagent | SD above plate mean | raw ATP luminescence, replicate 1 | raw ATP luminescence, replicate 2 | activity call
CG17470 | 1 | – | 87937 | 63503 | inactive
CG10283 | 1 | – | 81003 | 71903 | inactive
CG10337 | 1 | – | 52740 | 71957 | inactive
Or85b | 1 | – | 60650 | 60393 | inactive
CG42262 (retired record) | 1 | – | 1.63e5 | 1.51e5 | inactive
CG42262 (retired record) | 2 | – | 3.94e5 | 4.03e5 | inactive
d-cup | 1 | – | 47037 | 45773 | inactive
CG3651 | 1 | – | 64637 | 67093 | inactive
Arv1 | 1 | – | 62560 | 65850 | inactive
Nurf-38 | 1 | – | 49917 | 43297 | inactive
G9a | 1 | – | 61390 | 44620 | inactive
CG9630 | 1 | – | 60630 | 28913 | inactive
CG4702 | 1 | – | 95643 | 35650 | inactive
Tsp42Ei | 1 | – | 47167 | 76810 | inactive
CG13096 | 1 | – | 34960 | 64897 | inactive
mmy | 1 | – | 83087 | 63753 | inactive
nmdyn-D7 | 1 | – | 54873 | 67550 | inactive
CG12134 | 1 | – | 35890 | 1.04e5 | inactive
nAChRalpha2 | 1 | – | 41497 | 41537 | inactive
CG5181 | 1 | – | 1.30e5 | 73460 | inactive
Adk2 | 1 | – | 42177 | 34403 | inactive
CG33303 | 1 | – | 47993 | 75133 | inactive
Phf5a | 1 | – | 21403 | 22387 | inactive
CG15465 | 1 | – | 45090 | 41750 | inactive
fy | 1 | – | 41390 | 78017 | inactive
chinmo | 1 | – | 81677 | 62023 | inactive
CG14780 | 1 | – | 42030 | 52010 | inactive
CR11235 | 1 | – | 2.67e5 | 2.41e5 | inactive
CYTB (retired record) | 1 | – | 2.18e5 | 2.21e5 | inactive
TRAM | 1 | – | 85330 | 61100 | inactive
TRAM | 2 | – | 70550 | 61440 | inactive
CG13907 | 1 | – | 60413 | 84437 | inactive
CG15198 | 1 | – | 3.54e5 | 3.45e5 | inactive
CG11693 | 1 | – | 34633 | 28890 | inactive
CG1648 | 1 | – | 58697 | 50017 | inactive
PAPLA1 | 1 | – | 1.02e5 | 44183 | inactive
PAPLA1 | 2 | – | 44163 | 82250 | inactive
Rim | 1 | – | 43700 | 53340 | inactive
Rim | 2 | – | 18510 | 17730 | inactive
Rim | 3 | – | 43650 | 50663 | inactive
Rim | 4 | – | 40240 | 38160 | inactive
CG1631 | 1 | – | 3.57e5 | 2.51e5 | inactive
CG31437 | 1 | – | 2.79e5 | 2.74e5 | inactive
CG12713 | 1 | – | 38183 | 52867 | inactive
alpha-Man-Ia | 1 | – | 79303 | 92937 | inactive
alpha-Man-Ia | 2 | – | 2.97e5 | 2.69e5 | inactive
alpha-Man-Ia | 3 | – | 2.95e5 | 2.90e5 | inactive
alpha-Man-Ia | 4 | – | 3.20e5 | 2.73e5 | inactive
CG7884 | 1 | – | 3.33e5 | 3.25e5 | inactive
CG13031 | 1 | – | 75403 | 1.02e5 | inactive
Ugt37B1 | 1 | – | 36923 | 32877 | inactive
p23 | 1 | – | 54210 | 21543 | inactive
